Measurements reported in PubChem BioAssay AID1259405 (NCATS, 2018)
Here is one part, drawn at random, of about 50,000 deposited reagents. About 4,000 of them (8%) count as active. 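Mouse siRNA library applied to hamster cells; one well for each siRNA.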 Unmarked entries are inactive.

Test: 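Silenced genes that increase secreted GFP made by CHO cells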 (primary screen)
Cells: Chinese hamster CHO-K1 ovary cells with stable secreted eGFP expression
Knock-down reagent: single siRNA against mouse genes, 0.8 pmol siRNA per well (2 µl of 400 nM stock)
Duration: 3 days
Measurement: 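Per-well intracellular GFP measured by laser scanning cytometry, plus viability from ATP luminescence, each relative to plate median of non-targeting control wells, in %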
Reading the numbers: GFP, % of control: higher = more GFP per well, higher productivity; viability (ATP), % of control: higher = more viable cells (more ATP)
Rule for the call: 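a knock-down is called active if GFP reaches 120% or more of non-targeting control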

gene | PubChem SID | GFP, % of control | viability (ATP), % of control
Champ1 (chromosome alignment maintaining phosphoprotein 1) | SID363539814 | 74.4 | 48.6
Champ1 (chromosome alignment maintaining phosphoprotein 1) | SID363561115 | 102 | 114
Champ1 (chromosome alignment maintaining phosphoprotein 1) | SID363565205 | 33.6 | 27.4
Tktl2 (transketolase-like 2) | SID363568755 | 53.4 | 74
Tktl2 (transketolase-like 2) | SID363576147 | 65.2 | 58.2
Tktl2 (transketolase-like 2) | SID363578963 | 82.4 | 81.8
Morn4 (MORN repeat containing 4) | SID363546975 | 83.1 | 39.1
Morn4 (MORN repeat containing 4) | SID363549787 | 70.6 | 67.3
Morn4 (MORN repeat containing 4) | SID363587841 | 134 (active) | 137
Tcf7 (transcription factor 7, T cell specific) | SID363569110 | 107 | 91.5
Tcf7 (transcription factor 7, T cell specific) | SID363583542 | 118 | 81
Wnt5b (WNT family member 5B) | SID363541638 | 51.3 | 53.3
Wnt5b (WNT family member 5B) | SID363553230 | 85.5 | 54.3
Wnt5b (WNT family member 5B) | SID363566554 | 65.5 | 61.9
Or6n2 (olfactory receptor family 6 subfamily N member 2) | SID363544675 | 58.3 | 50
Or6n2 (olfactory receptor family 6 subfamily N member 2) | SID363551003 | 39.7 | 81.6
Or6n2 (olfactory receptor family 6 subfamily N member 2) | SID363557552 | 37.1 | 41.9
Or9g3 (olfactory receptor family 9 subfamily G member 3) | SID363544651 | 119 | 83.1
Or9g3 (olfactory receptor family 9 subfamily G member 3) | SID363550979 | 30.4 | 50.5
Or9g3 (olfactory receptor family 9 subfamily G member 3) | SID363557528 | 104 | 89.2
Zfp955a (zinc finger protein 955A) | SID363540927 | 45 | 59.6
Zfp955a (zinc finger protein 955A) | SID363555554 | 59.6 | 68.5
Zfp955a (zinc finger protein 955A) | SID363565843 | 63.8 | 48.5
Ephx2 (epoxide hydrolase 2, cytoplasmic) | SID363569989 | 106 | 112
Ephx2 (epoxide hydrolase 2, cytoplasmic) | SID363577029 | 80.6 | 85.3
Ephx2 (epoxide hydrolase 2, cytoplasmic) | SID363578437 | 67.6 | 67.7
Or5p69 (olfactory receptor family 5 subfamily P member 69) | SID363544735 | 69.3 | 84.4
Or5p69 (olfactory receptor family 5 subfamily P member 69) | SID363551063 | 71.2 | 50.4
Or5p69 (olfactory receptor family 5 subfamily P member 69) | SID363557612 | 74.5 | 66.9
Rfx4 (regulatory factor X, 4 (influences HLA class II expression)) | SID363540946 | 53.4 | 64.1
Rfx4 (regulatory factor X, 4 (influences HLA class II expression)) | SID363555573 | 64.7 | 78.1
Rfx4 (regulatory factor X, 4 (influences HLA class II expression)) | SID363565862 | 96.6 | 76.2
Itgad (integrin, alpha D) | SID363555278 | 79.2 | 92.5
Itgad (integrin, alpha D) | SID363563939 | 146 (active) | 53.2
Itgad (integrin, alpha D) | SID363587485 | 114 | 103

Looked up above.
Result for Or6n2 (olfactory receptor family 6 subfamily N member 2) [SID363551003] in “GFP, % of control”: 39.7
Entry for Itgad (integrin, alpha D) [SID363563939] in “GFP, % of control”: 146 (active)
